Results as given in patent publication US12280090B2 (priority 2018, dated 2025).

Test: peptide made by a vendor
Conditions: whole synthesis

## AFLSTVKNTLINVAGTMIDTFKCKITGVC (AFLSTVKNTLTNVAGTMIDTFKCKITGVC; Antimicrobial peptide based on North American bullfrog, Rana (Lithobates) catesbeiana)
  outcome: the service provider was unable to synthesize this peptide despite multiple attempts

Where a sequence shows no end group, the ends are not given.
